Source: PubChem BioAssay AID493014 (National Center for Advancing Translational Sciences (NCATS), 2011)
About 170 (0.05%) of roughly 340,000 compounds were called active. Inconclusive means that the source gave no clear call. Such entries were picked first, then a sample of the others. Calls come from the whole dose curve; as a rule, active = well fitted inhibition curve with a large enough effect in the signal ratio, with a control signal flat (not every such curve was filed as active); inconclusive = small, poorly fitted or top-dose-only effect, or effect the other way, or a change in a side signal; inactive = flat fitted curve, though single readings scatter; the % refers to the signal ratio. Potencies of inconclusive entries are doubtful fits and often do not repeat.

Test: qHTS Assay to Find Inhibitors of Chronic Active B-Cell Receptor Signaling;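 for activity change, negative = inhibition: plate controls were basal doxycycline-induced cells for no effect and cells given 10 µM MG132 for full effect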
Conditions: ABC-DLBCL IkBa-CBG/CBR reporter, luminescence ratio (green luciferase fused to IkBa over red control in TMD8 lymphoma cells), 4 h; activity change, negative = inhibition: at 46.1 µM (top of the series)
In short: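 Concentration-response series (up to 46 uM) were applied to TMD8 dual-reporter cells for 4 h at 37C with doxycycline. Green/red ratio, after filter-overlap correction, defined %Activity; red signal alone was normalised to basal cells and zero luminescence.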
Potency is the fitted concentration of half-maximal effect.

SMILES | activity change, negative = inhibition | Potency
COCc1nnc(NC(=O)CCC2CCCCC2)s1 | inconclusive: 8.95% | 
CN(C)c1nc2c(N)ncnc2n1[C@H]1O[C@@H](CO)[C@H](O)[C@@H]1O | inactive | 
N/C(=N/O)C(c1ccccc1)c1ccccc1 | inactive | 
Cc1ccc(CNC(=O)c2cc(=O)c3ccccc3o2)cc1 | inconclusive: 7.44% | 
Cc1ccc(NC(=O)CSc2nc3[nH]ncc3c(=O)[nH]2)cc1 | inconclusive: 0.191% | 
CN1C(=O)NC(c2ccccc2)C2=C1CN(c1cccc(C(F)(F)F)c1)C2=O (configuration not stated) | inconclusive: 2.2% | 
CCN1CCN(C(=O)/C=C/c2ccc3c(c2)OCO3)CC1 |  | inconclusive: 7.94 µM [falling, partial curve, poor fit]
O=C(NNS(=O)(=O)c1ccc([N+](=O)[O-])cc1)C(=O)Nc1cccc(C(=O)O)c1 |  | inconclusive: 28.2 µM [falling, single point]
C=CCOc1nc2c(c(=O)n(C)c(=O)n2C)n1C | inconclusive: 4.5% | 
Cc1ccc(-n2c(O)c(/C=N/Nc3ccc(S(=O)(=O)N4CCOCC4)cc3[N+](=O)[O-])c3ccccc3c2=O)c(C)c1 | inconclusive: 2.14% | 
Cn1c(N)c(C(=O)COC(=O)COc2ccc(C#N)cc2)c(=O)n(C)c1=O | inconclusive: 11.5% | 
COc1ccc(C(=O)Nc2nnc(C3=COCCO3)o2)cc1OC | inactive | 
CCOC(=O)N/C(N)=N/c1nc2ccccc2s1 |  | inconclusive: 6.51 µM [falling, single point]
O=S(=O)(Nn1cnnc1)c1ccccc1 |  | inconclusive: 2.31 µM [falling, partial curve, poor fit]
Oc1oc(-c2ccccc2)nc1/C=N/c1nccs1 | inconclusive: -11.5% | 
COc1ccc(-c2nnc(NC(=O)C3CCCO3)s2)cc1 (configuration not stated) | inactive | 
O=C(c1ccco1)N1CCN(C(=O)N2c3ccccc3Sc3ccccc32)CC1 |  | inconclusive: 5.8 µM [falling, partial curve, poor fit]
CC1Cc2ccccc2N1Cc1cccc([N+](=O)[O-])c1 (configuration not stated) | inactive | 
CCOc1ccc(C(C(=O)NC2CCCCC2)N(C(=O)Cc2cccs2)c2ccc(-n3cnnn3)c(OC)c2)cc1 (configuration not stated) | inactive | 
COc1ccc(NC(=O)c2cccc(S(=O)(=O)N(C)c3ccccc3)c2)cn1 | inconclusive: -3.27% | 
COc1ccc(OC)c(NC(=O)COC(=O)c2c3c(nc4ccccc24)CCCC3)c1 | inconclusive: -9.88% | 
Cc1ccc(S(=O)(=O)NCCCN2CCCC2)cc1 | inactive | 
O=C(/N=C1\NC(=O)C(F)(C(F)(F)F)S1)NC1CCCCC1 (configuration not stated) | inactive | 
O=c1c2ccccc2nc(-c2ccco2)n1CCCn1ccnc1 | inactive | 
COc1ccc(CCCC(=O)Nc2ccc(F)cc2)cc1 | inconclusive: -4.14% | 
Cc1ccc(S(=O)(=O)CCC(=O)N2CCN(c3nc4c(C)c(Cl)ccc4s3)CC2)cc1 | inconclusive: -80.9% | 

SMILES | activity change, negative = inhibition | Potency
N#Cc1cc(-c2ccccc2)nn1-c1ccccc1 |  | inconclusive: 13 µM [rising, partial curve, poor fit]
COc1ccccc1-n1cnnc1SCC(=O)Nc1cc(C)on1 |  | inconclusive: 0.562 µM [falling, full curve, poor fit]
COc1ccc(-c2nc(CN3CCC(C(=O)N4CCc5ccccc54)CC3)c(C)o2)cc1OC | inconclusive: 1.03% | 
O=C(CSc1nnc(NC(=O)C2CCC2)s1)Nc1ccccc1Br | inconclusive: 5.5% | 
Cc1ccc(NC(=S)NCc2ccccc2Cl)c(C)c1 | inconclusive: 7.32% | 
CCNc1nc(C23CC4CC(CC(C4)C2)C3)cs1 |  | inconclusive: 4.47 µM [falling, partial curve, poor fit]
CCOC(=O)[C@H]1[C@H]2COc3ccc(Cl)cc3[C@@H]2N2C(=O)c3cc(Br)ccc3NC(=O)[C@@]12C | inconclusive: 1.88% | 
COc1ccc(NC(=O)N2C3CCCC2CC(NC(=O)C2CC2)C3)cc1 (configuration not stated) | inactive | 
COc1ccc(-c2csc(N(CCCN(C)C)C(=O)c3ccccc3F)n2)cc1 | inconclusive: -17% | 
COc1ccc(N2CCN(c3cc(C)c4ccc(O)cc4n3)CC2)cc1 | inactive | 
COC(=O)CNS(=O)(=O)c1ccc(Cc2ccc(S(=O)(=O)NCC(=O)OC)cc2)cc1 |  | inconclusive: 0.501 µM [falling, full curve, poor fit]
COc1ccc(Cn2c(O)c(C=Nc3ccc(O)cc3)c3ccccc3c2=O)cc1 | inconclusive: 0.0983% | 
CC(C)C(=O)Nc1cccc(NC(=S)NC(=O)c2ccccc2Cl)c1 |  | inconclusive: 11.2 µM [falling, partial curve]
CCOc1nc2cnccc2n(CC(=O)Nc2ccccc2C(=O)OC)c1=O | inactive | 
CCCN(CCC)c1nc(N)nc(-c2cc(Cl)ccc2OC)n1 | inconclusive: 1.25% | 
O=C(O)Cc1coc2ccc3ccccc3c12 | inactive | 
OCC1(Cc2ccccc2C(F)(F)F)CCN(Cc2ccccc2)CC1 |  | inconclusive: 8.91 µM [falling, single point]
Cc1ccc(NC(=O)CSc2nc3c(c(=O)[nH]2)CCC3)cc1C | inconclusive: -4.48% | 
O=C(CSc1nnc(C2CCCCC2)o1)Nc1ccccc1Cl |  | inconclusive: 20 µM [falling, partial curve]
Cc1nc2c(C#N)cnn2c2c1CCN2CC1CCCO1 (configuration not stated) | inactive | 
COc1ccc2[nH]c3c(c2c1)CCN1C(=O)C(CC(=O)NC(C)(C)C)C[C@H](C(=O)N2CCCCC2)[C@@]31CCc1ccccc1 (some centres not stated) | inactive | 
CCOc1ccc(OCc2cccc(C(=O)O)c2)cc1 | inconclusive: 247% | 
CCCN1CCN(c2ncnc3scc(C4COc5ccccc5O4)c23)CC1 (configuration not stated) | inconclusive: -10.9% | 
COc1ccc(CC(=O)Nc2c(C(N)=O)oc3ccccc23)cc1 | inconclusive: -0.557% | 
Cc1cc(C)c2c(CN3CCN(C/C=C/c4ccccc4)CC3)cc(=O)oc2c1 |  | inconclusive: 25.1 µM [falling, partial curve, poor fit]
Cc1cc(C)n2nc(C(=O)OCC(=O)c3ccccc3)nc2n1 | inactive | 
